Measurements: article PMC4646279
These are yes or no findings as the source states them, for the method shown. Binding seen in cells or lysates may run through a third protein. Some results given as binding are weak or reduced against the parent protein; the word gives no strength. For some assays here: Where a sequence is shown, tags or fusion partners need not be part of it. Values belong to the binder of their own block, whether it stands above or below them.

Amino acid sequences for entries named in this document (tags omitted). Residues count along the entry.
UniProt P17655, residues 20-700: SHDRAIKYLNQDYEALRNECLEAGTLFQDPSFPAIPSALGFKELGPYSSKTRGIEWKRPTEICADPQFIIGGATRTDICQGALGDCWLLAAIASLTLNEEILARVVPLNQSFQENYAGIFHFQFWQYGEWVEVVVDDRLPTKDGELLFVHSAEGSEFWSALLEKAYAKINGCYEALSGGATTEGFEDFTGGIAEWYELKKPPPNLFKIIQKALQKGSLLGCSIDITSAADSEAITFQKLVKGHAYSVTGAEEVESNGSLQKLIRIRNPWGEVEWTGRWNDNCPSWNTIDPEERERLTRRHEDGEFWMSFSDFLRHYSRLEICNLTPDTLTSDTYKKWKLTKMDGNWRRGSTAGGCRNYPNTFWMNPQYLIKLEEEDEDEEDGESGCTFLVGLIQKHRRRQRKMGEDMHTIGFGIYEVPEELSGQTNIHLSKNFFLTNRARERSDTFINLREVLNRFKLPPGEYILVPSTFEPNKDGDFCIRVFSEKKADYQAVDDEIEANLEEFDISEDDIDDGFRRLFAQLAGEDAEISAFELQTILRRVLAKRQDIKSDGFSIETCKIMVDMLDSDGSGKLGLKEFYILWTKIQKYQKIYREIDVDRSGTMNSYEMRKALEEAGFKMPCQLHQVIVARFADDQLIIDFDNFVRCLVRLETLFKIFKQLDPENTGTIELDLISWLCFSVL
UniProt P07384: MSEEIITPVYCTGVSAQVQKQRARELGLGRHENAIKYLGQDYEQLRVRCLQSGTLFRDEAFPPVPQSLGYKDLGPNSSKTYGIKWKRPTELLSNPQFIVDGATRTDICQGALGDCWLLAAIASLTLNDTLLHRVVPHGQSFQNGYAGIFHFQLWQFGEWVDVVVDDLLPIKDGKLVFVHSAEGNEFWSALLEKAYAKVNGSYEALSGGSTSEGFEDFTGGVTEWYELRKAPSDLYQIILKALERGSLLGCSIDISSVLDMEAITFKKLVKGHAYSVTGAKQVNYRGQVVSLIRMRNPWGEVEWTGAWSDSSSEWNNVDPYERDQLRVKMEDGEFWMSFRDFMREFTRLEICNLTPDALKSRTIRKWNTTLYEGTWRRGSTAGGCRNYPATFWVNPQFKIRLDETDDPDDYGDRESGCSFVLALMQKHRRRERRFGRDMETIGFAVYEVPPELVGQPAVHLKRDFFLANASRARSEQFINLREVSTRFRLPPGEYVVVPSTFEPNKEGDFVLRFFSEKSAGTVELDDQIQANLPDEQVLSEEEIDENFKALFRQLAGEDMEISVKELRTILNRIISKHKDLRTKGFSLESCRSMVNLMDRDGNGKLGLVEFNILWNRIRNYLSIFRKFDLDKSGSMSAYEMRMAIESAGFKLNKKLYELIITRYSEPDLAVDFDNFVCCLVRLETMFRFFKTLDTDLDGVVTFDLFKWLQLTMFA

Tests used:
[1] = target: FLAG-calpain 2 (human) (UniProt P17655); assay: co-IP; data not shown; FLAG-calpain 2 overexpressed in 293T, co-immunoprecipitation
[2] = target: T1, p43-N106 with C-terminal FLAG tag (human) (UniProt Q12904); assay: co-IP; 293T extracts overexpressing FLAG-tagged full-length or truncated ArgRS, p43 or GlnRS; IP with FLAG antibody, Western blot with antibodies against MSC components
T1 sequence: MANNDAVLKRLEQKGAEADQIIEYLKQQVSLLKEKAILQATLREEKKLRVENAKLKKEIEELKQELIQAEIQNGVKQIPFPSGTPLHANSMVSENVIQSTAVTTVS

[3] = target: T2, p43ΔN106 with C-terminal FLAG tag (human) (UniProt Q12904); assay: as above
T2 sequence: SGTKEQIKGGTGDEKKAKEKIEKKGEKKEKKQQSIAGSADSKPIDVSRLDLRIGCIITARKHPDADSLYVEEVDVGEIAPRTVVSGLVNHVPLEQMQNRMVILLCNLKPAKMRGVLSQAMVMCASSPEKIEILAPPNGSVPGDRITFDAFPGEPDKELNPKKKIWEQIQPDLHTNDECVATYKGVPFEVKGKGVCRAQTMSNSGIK

[4] = target: FLAG-calpain 1 (human) (UniProt P07384); assay: co-IP; FLAG-calpain 2 or FLAG-calpain 1 overexpressed in 293T; IP with anti-FLAG antibody, Western blot with antibodies against endogenous MSC components; mouse IgG as negative control
[5] = target: T3, FLAG-ArgRSΔN63 (human) (UniProt P54136); assay: co-IP; 293T extracts overexpressing FLAG-tagged full-length or truncated ArgRS, p43 or GlnRS; IP with FLAG antibody, Western blot with antibodies against MSC components
T3 sequence: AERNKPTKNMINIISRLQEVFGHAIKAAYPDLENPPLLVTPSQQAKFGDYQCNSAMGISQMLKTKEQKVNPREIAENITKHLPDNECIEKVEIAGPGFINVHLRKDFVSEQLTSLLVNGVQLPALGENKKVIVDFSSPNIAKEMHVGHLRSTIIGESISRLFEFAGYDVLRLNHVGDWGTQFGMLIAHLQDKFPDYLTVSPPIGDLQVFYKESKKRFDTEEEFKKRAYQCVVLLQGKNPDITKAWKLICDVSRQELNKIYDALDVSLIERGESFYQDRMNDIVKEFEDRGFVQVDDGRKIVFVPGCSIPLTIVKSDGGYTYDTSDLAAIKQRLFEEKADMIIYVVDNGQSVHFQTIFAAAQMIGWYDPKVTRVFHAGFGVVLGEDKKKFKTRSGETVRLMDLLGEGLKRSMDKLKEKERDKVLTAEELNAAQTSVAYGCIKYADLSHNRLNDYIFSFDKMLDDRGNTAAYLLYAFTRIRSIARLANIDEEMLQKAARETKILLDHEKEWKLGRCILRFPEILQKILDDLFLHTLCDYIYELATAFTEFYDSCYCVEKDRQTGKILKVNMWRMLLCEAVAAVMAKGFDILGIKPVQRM

[6] = target: FLAG-calpain 2 (human) (UniProt P17655); assay: co-IP; FLAG-calpain 2 or FLAG-calpain 1 overexpressed in 293T; IP with anti-FLAG antibody, Western blot with antibodies against endogenous MSC components; mouse IgG as negative control
[7] = target: T4, FLAG-p43 (human) (UniProt Q12904); assay: co-IP; MSC purification: 293T transfected with FLAG-ArgRS or FLAG-p43, lysate on anti-FLAG M2 affinity gel 2 h at 4 °C, washed with PBS four times, eluted with 3xFLAG peptides; Coomassie staining and Western blots
T4 sequence: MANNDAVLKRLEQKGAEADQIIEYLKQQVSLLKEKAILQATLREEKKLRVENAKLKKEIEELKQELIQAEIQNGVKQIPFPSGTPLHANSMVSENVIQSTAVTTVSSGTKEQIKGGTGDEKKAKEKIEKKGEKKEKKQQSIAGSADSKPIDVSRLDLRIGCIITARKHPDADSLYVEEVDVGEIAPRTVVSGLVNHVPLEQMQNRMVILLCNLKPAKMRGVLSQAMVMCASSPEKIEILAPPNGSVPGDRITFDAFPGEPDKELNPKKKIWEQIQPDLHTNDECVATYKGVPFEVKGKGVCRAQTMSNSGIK

- binding [1]: binds
- binding [2]: binds
- binding [3]: no binding
- binding [4]: no binding
B1: arginyl-tRNA synthetase (ArgRS), endogenous (enzyme, UniProt P54136 1-660)
chain: MDVLVSECSARLLQQEEEIKSLTAEIDRLKNCGCLGASPNLEQLQEENLKLKYRLNILRKSLQAERNKPTKNMINIISRLQEVFGHAIKAAYPDLENPPLLVTPSQQAKFGDYQCNSAMGISQMLKTKEQKVNPREIAENITKHLPDNECIEKVEIAGPGFINVHLRKDFVSEQLTSLLVNGVQLPALGENKKVIVDFSSPNIAKEMHVGHLRSTIIGESISRLFEFAGYDVLRLNHVGDWGTQFGMLIAHLQDKFPDYLTVSPPIGDLQVFYKESKKRFDTEEEFKKRAYQCVVLLQGKNPDITKAWKLICDVSRQELNKIYDALDVSLIERGESFYQDRMNDIVKEFEDRGFVQVDDGRKIVFVPGCSIPLTIVKSDGGYTYDTSDLAAIKQRLFEEKADMIIYVVDNGQSVHFQTIFAAAQMIGWYDPKVTRVFHAGFGVVLGEDKKKFKTRSGETVRLMDLLGEGLKRSMDKLKEKERDKVLTAEELNAAQTSVAYGCIKYADLSHNRLNDYIFSFDKMLDDRGNTAAYLLYAFTRIRSIARLANIDEEMLQKAARETKILLDHEKEWKLGRCILRFPEILQKILDDLFLHTLCDYIYELATAFTEFYDSCYCVEKDRQTGKILKVNMWRMLLCEAVAAVMAKGFDILGIKPVQRM

- binding [5]: no binding
- binding [4]: binds weakly
- binding [6]: binds
- binding [7]: binds
B2: glutaminyl-tRNA synthetase (GlnRS), endogenous (enzyme, UniProt P47897 1-775)
chain: MAALDSLSLFTSLGLSEQKARETLKNSALSAQLREAATQAQQTLGSTIDKATGILLYGLASRLRDTRRLSFLVSYIASKKIHTEPQLSAALEYVRSHPLDPIDTVDFERECGVGVIVTPEQIEEAVEAAINRHRPQLLVERYHFNMGLLMGEARAVLKWADGKMIKNEVDMQVLHLLGPKLEADLEKKFKVAKARLEETDRRTAKDVVENGETADQTLSLMEQLRGEALKFHKPGENYKTPGYVVTPHTMNLLKQHLEITGGQVRTRFPPEPNGILHIGHAKAINFNFGYAKANNGICFLRFDDTNPEKEEAKFFTAICDMVAWLGYTPYKVTYASDYFDQLYAWAVELIRRGLAYVCHQRGEELKGHNTLPSPWRDRPMEESLLLFEAMRKGKFSEGEATLRMKLVMEDGKMDPVAYRVKYTPHHRTGDKWCIYPTYDYTHCLCDSIEHITHSLCTKEFQARRSSYFWLCNALDVYCPVQWEYGRLNLHYAVVSKRKILQLVATGAVRDWDDPRLFTLTALRRRGFPPEAINNFCARVGVTVAQTTMEPHLLEACVRDVLNDTAPRAMAVLESLRVIITNFPAAKSLDIQVPNFPADETKGFHQVPFAPIVFIERTDFKEEPEPGFKRLAWGQPVGLRHTGYVIELQHVVKGPSGCVESLEVTCRRADAGEKPKAFIHWVSQPLMCEVRLYERLFQHKNPEDPTEVPGGFLSDLNLASLHVVDAALVDCSVALAKPFDKFQFERLGYFSVDPDSHQGKLVFNRTVTLKEDPGKV
